Assay results taken from PMC6202318.
Results are given in words; binding and its absence hold for the method and conditions named. In cells and extracts the contact can be indirect. Some binding calls cover weakened binding; strength is not graded here.

Chains of the proteins cited; added tags and fusions are not shown. Residues count along the entry.
UniProt P0A6F5: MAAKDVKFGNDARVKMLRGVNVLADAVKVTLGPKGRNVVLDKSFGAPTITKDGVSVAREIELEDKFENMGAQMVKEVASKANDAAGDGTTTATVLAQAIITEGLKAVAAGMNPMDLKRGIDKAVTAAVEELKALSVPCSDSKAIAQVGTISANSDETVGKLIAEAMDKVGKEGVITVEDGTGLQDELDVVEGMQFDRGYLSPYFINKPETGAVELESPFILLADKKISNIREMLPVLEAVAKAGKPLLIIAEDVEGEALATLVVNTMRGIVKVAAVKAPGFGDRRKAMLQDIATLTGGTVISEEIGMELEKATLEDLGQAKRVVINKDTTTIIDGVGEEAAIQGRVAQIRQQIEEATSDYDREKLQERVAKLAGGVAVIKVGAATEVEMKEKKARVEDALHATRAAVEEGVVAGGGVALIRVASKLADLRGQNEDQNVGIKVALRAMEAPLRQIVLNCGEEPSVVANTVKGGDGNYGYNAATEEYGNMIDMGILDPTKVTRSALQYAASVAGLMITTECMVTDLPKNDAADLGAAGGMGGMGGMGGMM
UniProt P50591, residues 91-281: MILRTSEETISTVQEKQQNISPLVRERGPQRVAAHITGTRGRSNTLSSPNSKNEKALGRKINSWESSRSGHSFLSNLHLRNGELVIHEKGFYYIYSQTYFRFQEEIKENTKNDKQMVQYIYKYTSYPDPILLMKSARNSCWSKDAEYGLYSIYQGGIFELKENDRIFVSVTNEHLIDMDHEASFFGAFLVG

Target: GroEL (E. coli) (UniProt P0A6F5)
Assay: co-IP; lysates of E. coli strains incubated with anti-GroEL antibody at room temperature 1 h, protein A/G agarose resin 30 min, washed with 0.15 M NaCl, 20 mM Na2HPO4, pH 7.0; eluted with SDS-PAGE loading buffer; Western blot with anti-TRAIL and anti-GroEL antibodies

Q: For “recombinant human tumor necrosis factor-related apoptosis-inducing ligand (TRAIL) (from UniProt P50591 91-281)”, which binding is on record?
A: binds
